No constants are given. Whether binding was seen depends on the method and setting. Binding seen in cells or lysates may run through a third protein. Some binding calls cover weakened binding; strength is not graded here. Tags and fused reporters may be left off the sequences shown.
T1: human GIPR fused at its C-terminus to Renilla luciferase (RLuc) or GFP (BRET constructs) (human), P48546
T1 chain: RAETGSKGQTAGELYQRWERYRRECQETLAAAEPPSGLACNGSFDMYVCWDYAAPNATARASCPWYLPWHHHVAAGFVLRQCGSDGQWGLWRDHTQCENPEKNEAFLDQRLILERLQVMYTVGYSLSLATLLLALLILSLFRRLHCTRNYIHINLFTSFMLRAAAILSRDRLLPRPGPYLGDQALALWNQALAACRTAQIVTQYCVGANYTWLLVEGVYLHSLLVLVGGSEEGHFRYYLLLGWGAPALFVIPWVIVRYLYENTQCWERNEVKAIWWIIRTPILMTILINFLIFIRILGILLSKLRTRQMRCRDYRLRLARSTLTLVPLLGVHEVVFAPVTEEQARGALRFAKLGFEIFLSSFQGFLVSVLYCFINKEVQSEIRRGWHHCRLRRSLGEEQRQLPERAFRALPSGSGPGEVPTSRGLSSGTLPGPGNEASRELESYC

T2: human GLP1R fused at its C-terminus to GFP or Renilla luciferase (RLuc) (BRET constructs) (human), P43220
T2 chain: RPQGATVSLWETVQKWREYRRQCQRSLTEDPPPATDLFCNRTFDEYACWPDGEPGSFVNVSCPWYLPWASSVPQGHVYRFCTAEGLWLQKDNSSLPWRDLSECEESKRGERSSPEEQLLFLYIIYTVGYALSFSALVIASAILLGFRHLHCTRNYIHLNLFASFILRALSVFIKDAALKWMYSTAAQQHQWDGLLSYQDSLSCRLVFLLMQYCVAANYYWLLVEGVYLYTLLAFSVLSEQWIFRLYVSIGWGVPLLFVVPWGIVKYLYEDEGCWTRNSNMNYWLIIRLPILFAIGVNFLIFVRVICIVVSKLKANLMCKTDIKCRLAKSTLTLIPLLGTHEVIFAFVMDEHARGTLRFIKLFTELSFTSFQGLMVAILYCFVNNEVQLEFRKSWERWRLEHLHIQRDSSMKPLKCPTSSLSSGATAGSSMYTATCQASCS

T3: human GIPR fused at its C-terminus to Renilla luciferase (RLuc) or GFP (BRET constructs) (human) (UniProt P48546)
T3 sequence: T1 chain

B1: human GLP1R fused at its C-terminus to GFP or Renilla luciferase (RLuc) (BRET constructs), P43220 24-463 (receptor)
chain: T2 chain
B2: human GIPR fused at its C-terminus to Renilla luciferase (RLuc) or GFP (BRET constructs) (receptor, UniProt P48546 22-466)
chain: T1 chain
B3: GFP-tagged hyperpolarization-activated channel (HCN2-GFP) (protein, UniProt O88703 1-863)
chain: MDARGGGGRPGDSPGTTPAPGPPPPPPPPAPPQPQPPPAPPPNPTTPSHPESADEPGPRARLCSRDSACTPGAAKGGANGECGRGEPQCSPEGPARGPKVSFSCRGAASGPSAAEEAGSEEAGPAGEPRGSQASFLQRQFGALLQPGVNKFSLRMFGSQKAVEREQERVKSAGAWIIHPYSDFRFYWDFTMLLFMVGNLIIIPVGITFFKDETTAPWIVFNVVSDTFFLMDLVLNFRTGIVIEDNTEIILDPEKIKKKYLRTWFVVDFVSSIPVDYIFLIVEKGIDSEVYKTARALRIVRFTKILSLLRLLRLSRLIRYIHQWEEIFHMTYDLASAVMRICNLISMMLLLCHWDGCLQFLVPMLQDFPSDCWVSINNMVNHSWSELYSFALFKAMSHMLCIGYGRQAPESMTDIWLTMLSMIVGATCYAMFIGHATALIQSLDSSRRQYQEKYKQVEQYMSFHKLPADFRQKIHDYYEHRYQGKMFDEDSILGELNGPLREEIVNFNCRKLVASMPLFANADPNFVTAMLTKLKFEVFQPGDYIIREGTIGKKMYFIQHGVVSVLTKGNKEMKLSDGSYFGEICLLTRGRRTASVRADTYCRLYSLSVDNFNEVLEEYPMMRRAFETVAIDRLDRIGKKNSILLHKVQHDLSSGVFNNQENAIIQEIVKYDREMVQQAELGQRVGLFPPPPPPQVTSAIATLQQAVAMSFCPQVARPLVGPLALGSPRLVRRAPPGPLPPAASPGPPAASPPAAPSSPRAPRTSPYGVPGSPATRVGPALPARRLSRASRPLSASQPSLPHGVPAPSPAASARPASSSTPRLGPAPTARTAAPSPDRRDSASPGAASGLDPLDSARSRLSSNL

Columns and labels:
Assay in all cases: FRET or BRET; BRET^2 saturation curves in CHO cells: 0.5 µg RLuc-tagged construct with 0.5–3 µg GFP-tagged construct cDNA, DeepBlueC 5 µM, about 100,000 cells per well in DPBS with aprotinin; fitted to a single binding site equation
[1] = target: T1, human GIPR fused at its C-terminus to …; settings: remark: other sources report otherwise
[2] = target: T2, human GLP1R fused at its C-terminus to …; settings: remark: other sources report otherwise
[3] = target: T3, human GIPR fused at its C-terminus to Renilla luciferase (RLuc) or GFP (BRET constructs) (human)
[4] = target: human GLP1R fused at its C-terminus to GFP or Renilla luciferase (RLuc) (BRET constructs) (human) (UniProt P43220)

Row | Binder | binding [1] | binding [2] | binding [3] | binding [4]
1 | B1 | binds | binds |  | 
2 | B2 |  |  | binds | 
3 | B3 |  |  | no binding | no binding

From paper PMC3296735
